Assay results from PubChem BioAssay AID504467 (National Center for Advancing Translational Sciences (NCATS), 2011).
The campaign covered roughly 330,000 compounds. About 7,700 (2.3%) were called active. The inconclusive results got no clear call from the source; some entries with a clear call stand among them for comparison. Calls come from the whole dose curve; as a rule, active = well fitted inhibition curve with a large enough effect; inconclusive = small, poorly fitted or top-dose-only effect, or effect the other way; inactive = flat fitted curve, though single readings scatter. Where the call is inconclusive, the potency comes from a doubtful curve fit.
Potency is the fitted concentration of half-maximal effect.

Assay: qHTS screen for small molecules that inhibit ELG1-dependent DNA repair in human embryonic kidney (HEK293T) cells expressing luciferase-tagged ELG1; note: nearly all actives have a fitted effect of over 55% in size
Conditions: HEK293T ELG1-luciferase reporter, luminescence, 16 h, DNA damage induced by 5-fluorouridine; series mostly up to 46.1 µM
Outline: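 Overnight (16 hr) co-exposure of 2,000 cells/well to 5-fluorouridine and compound at 37 °C preceded detection. Luciferase was quantified via ONE-Glo luminescence; loss of signal denotes inhibition.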
For Cc1csc(=NC(=O)c2ccccc2)n1Cc1ccco1, the Potency was inconclusive: 16.4 µM [inhibitor, single point].
In the case of COC(=O)c1cc2ccc(OC)cc2c2cc(OC)c(OC)cc12, the Potency is reported as active: 13 µM.
In the case of CC1CCCN(C(=O)Cn2nnc(-c3ccc(F)cc3)n2)C1 (centres undefined), the Potency is reported as “inactive”.
With COc1cc(S(=O)(=O)NCc2ccc3c(c2)OCO3)ccc1F the Potency was “inactive”.
With Cc1noc(NS(=O)(=O)c2ccc(NC(=O)c3ccc(Br)o3)cc2)c1C the Potency was “inactive”.
With CCCCN1C(=O)C(=O)c2cc(Cl)ccc21 the Potency was inconclusive: 11.6 µM [activator, partial curve].
In the case of COc1ccc(OC)c(/C=C/C(=O)N(C)CC(=O)Nc2ccc(N3CCOCC3)cc2)c1, the Potency is reported as “inactive”.
In the case of CCCCCn1ccc(=N)cc1, the Potency is reported as inconclusive: 17.8 µM [inhibitor, partial curve, poor fit].
In the case of Cc1c(O)ccc(/C(Cc2ccc3ccccc3n2)=N\O)c1O, the Potency is reported as inconclusive: 16.4 µM [activator, partial curve].
For CCC(C)[C@H](NC(=O)Nc1ccc2c(c1)OCCO2)C(=O)OC (some centres undefined), the Potency was “inactive”.
With Cc1ccc(CCN2CCN=C2Nc2ccccc2)cc1 the Potency was “inactive”.
For Cc1cccc(/C=C2\CCC(=C3SCCCS3)C2=O)c1, the Potency was inconclusive: 0.517 µM [activator, full curve].
With CCCCOCCCNC(=O)N[C@H](C(=O)OC)C(C)C the Potency was “inactive”.
With CCc1nnc(NC(=O)C2CC(=O)N(C3CCCC3)C2)s1 (centres undefined) the Potency was “inactive”.
With NC(=O)c1ccc(NC(=O)COC(=O)c2ccc(Br)o2)cc1 the Potency was inconclusive: 18.3 µM [activator, single point].
With CCSc1nnc(-c2ccccc2SC)o1 the Potency was inconclusive: 6.51 µM [activator, partial curve, poor fit].
In the case of C[C@H](NC(=O)C1CC(=O)N(c2ccc3c(c2)OCO3)C1)C(=O)NCc1ccco1 (some centres undefined), the Potency is reported as inconclusive: 18.3 µM [activator, partial curve, poor fit].
With O=C(NC1CCCCCCC1)NC1CCCCC1 the Potency was inconclusive: 16.4 µM [activator, partial curve].
For C/C(Cn1nnc([N+](=O)[O-])n1)=N\NC(=O)c1ccccc1O, the Potency was inconclusive: 13 µM [inhibitor, partial curve].
With Cc1ccc(NC(=O)C2CCN(S(=O)(=O)c3ccc(N4CCCC4=O)cc3)CC2)cc1Cl the Potency was inconclusive: 3.66 µM [inhibitor, full curve].
For CN(C)CC(=O)Nc1cc(C(F)(F)F)ccc1Cl, the Potency was inconclusive: 23.1 µM [inhibitor, partial curve, poor fit].
With CCN(CC)CCn1c2c(c(SCC(=O)Nc3ccc4c(c3)OCCO4)nc1=O)CCCC2 the Potency was “inactive”.
In the case of CN(Cc1ccccc1)c1nc2c(c(=O)n(C)c(=O)n2C)n1CCCc1ccccc1, the Potency is reported as inconclusive: 18.4 µM [inhibitor, single point].
In the case of C[C@@H]1CCCCCCCCC(=O)OCCN(C(=O)OC(C)(C)C)[C@H](C)CCCCCCCCC(=O)OCCN(C(=O)OC(C)(C)C)[C@H](C)CCCCCCCCC(=O)OCCN1C(=O)OC(C)(C)C, the Potency is reported as “inactive”.
With COc1ccc2cc(-c3[nH]ncc3CN3CCCCO3)ccc2c1 the Potency was inconclusive: 11.6 µM [activator, partial curve].
In the case of Nc1cc(S(=O)(=O)N2CCCCC2)ccc1N1CCOCC1, the Potency is reported as “inactive”.
In the case of COc1ccc(C(=O)N2CCN(c3ccccc3OC)CC2)cc1, the Potency is reported as “inactive”.
For O=C(CN1C(=O)C2C3C=CC(C3)C2C1=O)Nc1nncs1 (centres undefined), the Potency was “inactive”.
For CCn1nc(C)c(C(=O)Nc2cc(Oc3cc(C)cc(C)c3)cc([N+](=O)[O-])c2)c1C, the Potency was active: 13 µM.
For CC(=O)Nc1cccc(-c2nc3ccccc3c(=O)o2)c1, the Potency was “inactive”.
In the case of Cc1cc(C)cc(-n2ncc3c2CCCC3NC(=O)CCN2Cc3ccccc3C2=O)c1 (centres undefined), the Potency is reported as inconclusive: 5.17 µM [inhibitor, full curve, poor fit].
For Cc1ccc(CNC(=O)CS(=O)Cc2nc(-c3cccs3)oc2C)cc1 (centres undefined), the Potency was “inactive”.
In the case of COc1cc2nc(N3CCN(C(=O)[C@H]4COc5ccccc5O4)CC3)nc(N)c2cc1OC, the Potency is reported as inconclusive: 0.291 µM [activator, partial curve, poor fit].
With N=C1SCC(=O)N1c1ccccc1Cl the Potency was “inactive”.
For O=C(CSc1nnc(SCC(=O)c2ccco2)s1)c1ccco1, the Potency was “inactive”.
With c1ccc2c(c1)nnn2-c1ncnc2sccc12 the Potency was inconclusive: 8.2 µM [activator, partial curve].
In the case of COCc1ccc(-c2c(-c3ccc(OC)cc3)oc(=O)c3cc(OC)c(OC)cc23)cc1, the Potency is reported as “inactive”.
For CC(C)C1=CC(=Nc2ccc(S(N)(=O)=O)cc2)C=C(C(C)C)C1=O, the Potency was inconclusive: 16.4 µM [inhibitor, partial curve, poor fit].
In the case of Cc1cc(C)nc(NC(=O)CSc2nccc(C)n2)n1, the Potency is reported as “inactive”.
For CC[C@]1(c2cccc(C)c2)C(=O)N(C(=O)OC)N1C(=O)OC, the Potency was inconclusive: 29.1 µM [inhibitor, single point].
For CN(C)C(=O)CSc1nnc2sc3ccccc3n12, the Potency was inconclusive: 20.6 µM [activator, single point].
For Cc1ccc(C(C(=O)NC2CCCCC2)N(CCCN2CCOCC2)C(=O)c2snc(C(N)=O)c2N)cc1 (centres undefined), the Potency was “inactive”.
With CCOc1ccc(OCCCC(=O)ON=C(N)c2ccccc2C)cc1 the Potency was inconclusive: 32.6 µM [activator, partial curve, poor fit].
With O=C1c2ccccc2-c2nnc(-c3ccc(O)cc3)cc21 the Potency was inconclusive: 2.59 µM [activator, partial curve].
In the case of COc1ccc(S(=O)(=O)NC(CC(=O)NCc2ccccc2OC)c2ccco2)cc1 (centres undefined), the Potency is reported as inconclusive: 18.4 µM [inhibitor, single point].
In the case of COc1cc(OC)c2c(-c3cccc(/C=C/c4ccc(F)cc4)c3)cc(=O)oc2c1, the Potency is reported as inconclusive: 8.2 µM [activator, partial curve].
With CCOC(=O)C1=C(CNCCc2ccc(Cl)cc2)NC(=O)NC1c1ccc2c(c1)OCO2 (centres undefined) the Potency was inconclusive: 11.2 µM [inhibitor, single point].
With N#Cc1c(NC(=O)C2CC2)sc2c1CCCCC2 the Potency was inconclusive: 16.4 µM [activator, partial curve].
In the case of O=C(Nc1ccc(Cl)cn1)c1cccc2c(Br)cccc12, the Potency is reported as inconclusive: 18.3 µM [inhibitor, single point].
For Cn1c(N2CCN(S(=O)(=O)c3ccc(Cl)cc3)CC2)nc2ccccc21, the Potency was inconclusive: 18.3 µM [inhibitor, single point].
In the case of CCOc1cccc(NC(=O)C2CCCN(S(=O)(=O)c3ccc(OC)cc3)C2)c1 (centres undefined), the Potency is reported as active: 23.1 µM.
In the case of Cc1ccc(Oc2coc3cc(O)ccc3c2=O)cc1, the Potency is reported as inconclusive: 18.3 µM [activator, single point].
For COc1ccc(S(=O)(=O)N2CCCC(C(=O)Nc3ccc(NC(=O)c4ccccn4)cc3)C2)cc1 (centres undefined), the Potency was inconclusive: 25.1 µM [inhibitor, single point].
For CN(c1ccccc1)c1ccc(/C=N/N2CCOCC2)cc1, the Potency was inconclusive: 2.91 µM [activator, full curve].
With CC12CCC(c3c(CO)nn(-c4ccccc4)c31)C2(C)C (centres undefined) the Potency was inconclusive: 1.16 µM [inhibitor, single point].
For Cc1ccc(C2C3=C(CCCC3=O)N=C3c4ccccc4C(=O)C32)cc1 (centres undefined), the Potency was inconclusive: 32.6 µM [inhibitor, single point].
For CN(CC(=O)Nc1ccccc1Cl)C(=O)COC(=O)CCN1C(=O)C2CC=CCC2C1=O (centres undefined), the Potency was “inactive”.
With COc1cccc(CNC(=O)Cc2ccc(-c3ccccc3)cc2)c1 the Potency was “inactive”.
With CC1(C)CC(=O)c2c(oc3cc(O)c(O)cc23)C1 the Potency was “inactive”.
With CCNC(=O)Nc1ccc(OC)cc1OC the Potency was “inactive”.
With CSc1cc(-c2ccccc2)n(Cc2ccccc2Cl)c(=O)c1C#N the Potency was inconclusive: 4.11 µM [inhibitor, full curve].
With COc1ccc(C)cc1-n1c(-c2ccncc2)n[nH]c1=S the Potency was “inactive”.
In the case of Cc1ccc(-n2ncc(Cl)c2C(=O)NCc2ccccc2)cc1, the Potency is reported as inconclusive: 18.3 µM [activator, partial curve].
For COC(=O)[C@]1(C)N[C@H](CN(C)C(=O)Nc2ccc(C)cc2)[C@@H]2C(=O)N(C)C(=O)[C@@H]21, the Potency was inconclusive: 20.6 µM [activator, partial curve, poor fit].
With COc1ccc(C(=O)C[n+]2cn(C(F)F)c3ccccc32)c(F)c1 the Potency was inconclusive: 23.1 µM [activator, single point].
For O=C(N/N=C/c1ccc[nH]1)c1cc(-c2cccs2)nc2ccccc12, the Potency was inconclusive: 25.9 µM [inhibitor, single point].
With COc1ccc(S(=O)(=O)N2c3ccccc3OCC2C(C)(C)C)cc1 (centres undefined) the Potency was “inactive”.
In the case of COc1cccc(CN(C(=O)c2cc3ccccc3oc2=O)C2CC2)c1, the Potency is reported as inconclusive: 20.6 µM [activator, partial curve].
For Cc1cccc(-c2nnc(SCC#N)n2-c2cccc(Cl)c2)c1, the Potency was “inactive”.
In the case of Cc1cccc(C(=O)OCC(=O)NC2CCCCCCC2)c1, the Potency is reported as inconclusive: 16.4 µM [activator, partial curve, poor fit].
In the case of COC(=O)c1cc(CSc2nnc(-c3ccccc3)c(-c3ccccc3)n2)oc1C, the Potency is reported as active: 20.6 µM.
In the case of c1coc(-c2nnc(NC3=NCCC3)o2)c1, the Potency is reported as inconclusive: 10 µM [activator, partial curve, poor fit].
In the case of O=S(=O)(c1ccc(N2CCN(Cc3ccccc3)CC2)nc1)N1CCCC1, the Potency is reported as inconclusive: 23.1 µM [inhibitor, single point].
In the case of COc1ccccc1CNC(=O)C1CCN(Cc2nc(-c3cccc(Cl)c3)oc2C)CC1, the Potency is reported as inconclusive: 29.1 µM [inhibitor, single point].
